Test results from the supplement of paper PMC4962491.
± gives the standard deviation of the averaged measurements. The list shows a part of the results, in another mix than the full data. Most values lie within the scatter of the assay; repeated measurements hardly agree.

System: FaDu
Assay: mitochondrial oxygen consumption rate normalised to cell number, Z score over the library; higher = higher oxygen consumption (negative = OCR reduction)
Conditions: treatment time 24 h, assay medium: 5 mM galactose, 5 mM pyruvate, 4 mM glutamine
Experimental: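 Primary screen: FaDu cells were incubated 24 h with Pharmakon 1600 / TDI oncology set compounds at 2 or 10 uM. Mitochondrial-specific OCR (basal minus 2 uM antimycin A) was measured on a Seahorse XF96 in assay medium with 5 mM galactose, 5 mM pyruvate and 4 mM glutamine, then corrected for Hoechst cell number and expressed as a Z score […]. Compounds that cut cell number by >66% were excluded. Two repeats.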

| Structure (SMILES) | mitochondrial oxygen consumption rate normalised (2 µM) | mitochondrial oxygen consumption rate normalised (10 µM) |
| --- | --- | --- |
| Cc1cc(C2CCCCC2)n(O)c(=O)c1 | -0.396 ± 0.54 |  |
| NS(=O)(=O)c1cc(C(=O)O)c(NCc2ccco2)cc1Cl | -1.21 ± 0.45 |  |
| O=C(O)c1cc(=O)c2ccccc2o1 | 0.846 ± 0.41 |  |
| CC(C)COCC(CN(Cc1ccccc1)c1ccccc1)N1CCCC1 (stereo unspecified) | 0.593 ± 0.7 |  |
| CCOC(=O)[C@H](CCc1ccccc1)N[C@@H](C)C(=O)N1[C@H](C(=O)O)C[C@@H]2CCC[C@@H]21 | 0.605 ± 0.82 |  |
| NC(=O)c1ncn([C@@H]2O[C@H](CO)[C@@H](O)[C@H]2O)n1 | 0.516 ± 0.71 |  |
| CN[C@H](CC(C)C)C(=O)N[C@H]1C(=O)N[C@@H](CC(N)=O)C(=O)N[C@H]2C(=O)N[C@H]3C(=O)N[C@H](C(=O)N[C@H](C(=O)O)c4cc(O)cc(O)c4-c4cc3ccc4O)[C@H](O)c3ccc(c(Cl)c3)Oc3cc2cc(c3O[C@@H]2O[C@H](CO)[C@@H](O)[C@H](O)[C@H]2O[C@H]2C[C@](C)(N)[C@H](O)[C@H](C)O2)Oc2ccc(cc2Cl)[C@H]1O | -1.26 ± 0.25 |  |
| O=C(CCCl)NCc1ccccc1 | -0.193 ± 0.39 |  |
| CNS(=O)(=O)Cc1ccc2[nH]cc(CCN(C)C)c2c1 | 0.219 ± 1.4 |  |
| NS(=O)(=O)c1cc2c(cc1Cl)N=CNS2(=O)=O | -3.45 ± 0.3 |  |
| O=C(Nc1ccccc1)c1ccccc1O | -0.555 ± 0.59 | -0.209 ± 0.021 |
| Cc1[nH]c(=O)c(C#N)cc1-c1ccncc1 | 0.94 ± 0.057 |  |
| CN(C)CCC=C1c2ccccc2CCc2ccccc21 | 1.31 ± 0.46 |  |
| Cc1ccnc2c1NC(=O)c1cccnc1N2C1CC1 | 0.323 ± 0.88 |  |
| C#C[C@]1(O)CC[C@H]2[C@@H]3CCc4cc(OC5CCCC5)ccc4[C@H]3CC[C@@]21C | 0.372 ± 0.19 |  |
| Oc1ccc(Cl)c2c1CCC2 | -0.161 ± 0.55 |  |
| CS(=O)(=O)c1ccc(C2=C(c3ccccc3)C(=O)OC2)cc1 | 0.505 ± 1.5 |  |
| Cn1c(=O)c2[nH]cnc2n(C)c1=O | 0.186 ± 0.36 |  |
| C=C[C@H]1CN2CC[C@H]1C[C@@H]2[C@@H](O)c1ccnc2ccc(OC)cc12 | -0.0801 ± 0.032 |  |
| Cc1c(C(N)=O)cc([N+](=O)[O-])cc1[N+](=O)[O-] | 0.79 ± 1.3 |  |
| N=C(N)N | -0.124 ± 0.71 |  |
| C[C@]12C=CC(=O)C=C1CC[C@@H]1[C@@H]2[C@@H](O)C[C@@]2(C)[C@H]1CC[C@]2(O)C(=O)COP(=O)(O)O | 0.452 ± 0.56 |  |
| C[C@]12CC[C@H]3C(=CCc4cc(O)ccc43)[C@@H]1CCC2=O | 1.05 ± 0.14 |  |
| Cc1ncc([N+](=O)[O-])n1CC(O)CCl (stereo unspecified) | 0.288 ± 0.052 |  |
| CN1C(C(=O)Nc2ccccn2)=C(O)c2sccc2S1(=O)=O | 0.79 ± 0.53 |  |

Given tab-delimited: entries from further up
Structure (SMILES)	mitochondrial oxygen consumption rate normalised (2 µM)	mitochondrial oxygen consumption rate normalised (10 µM)
CN[C@H](CC(C)C)C(=O)N[C@H]1C(=O)N[C@@H](CC(N)=O)C(=O)N[C@H]2C(=O)N[C@H]3C(=O)N[C@H](C(=O)N[C@H](C(=O)O)c4cc(O)cc(O)c4-c4cc3ccc4O)[C@H](O)c3ccc(c(Cl)c3)Oc3cc2cc(c3O[C@@H]2O[C@H](CO)[C@@H](O)[C@H](O)[C@H]2O[C@H]2C[C@](C)(N)[C@H](O)[C@H](C)O2)Oc2ccc(cc2Cl)[C@H]1O	-1.26 ± 0.25	
O=C(CCCl)NCc1ccccc1	-0.193 ± 0.39	
